Assay results: patent US20160084855A1, “Compositions and Methods for Modulation and Detection of Immune and Inflammatory Responses” (UNIVERSITY OF CONNECTICUT, priority 2013, published 2016)

Experiment: Serum Lipid 654 by MRM-mass spectrometry in patients and controls
Set-up: species or system human
[1] = MS patients N=17, adjusted by 13C internal standard, FIG. 25
[2] = banked serum, Alzheimer's patients N=15, FIG. 26
[3] = banked serum, MS patients N=13, FIG. 26
[4] = control patients (healthy) N=12, adjusted by 13C internal standard, FIG. 25

## CC(C)CCCCCCCCCCCC(=O)OC(CCCCCCCCCCCC(C)C)CC(=O)NCC(=O)N[C@@H](CO)C(=O)O (stereo partly drawn) [Lipid 654]
[1]
  Mean serum ion abundance, Transition 1: 414,891
  Mean serum ion abundance, Transition 2: 66,482
  Mean serum ion abundance, Transition 3: 2,762
[2]
  Mean serum ion abundance, Transition 1: 1,297,909
  Mean serum ion abundance, Transition 2: 295,680
  Mean serum ion abundance, Transition 3: 142,076
[3]
  Mean serum ion abundance, Transition 1: 112,139
  Mean serum ion abundance, Transition 2: 26,333
  Mean serum ion abundance, Transition 3: 13,786
[4]
  Mean serum ion abundance, Transition 1: 3,003,525
  Mean serum ion abundance, Transition 2: 497,055
  Mean serum ion abundance, Transition 3: 211,245
